{
  "source": "the supplement of paper PMC5949888",
  "note": "Most values lie at the floor of the assay. Slopes are relative: functional sequences can read slightly below zero.",
  "data": [
    {"test_system": "Saccharomyces cerevisiae PS128 hsf1 delta, HSF1(1-493) fusion", "test": "growth estimate (transactivation domain function in HSF1 fusion, heat-shock survival) (a.u. (slope of normalised read count over time)); higher = stronger growth at 37°C, i.e. more transactivation activity", "conditions": "library: random library", "values": [
      {"substance": "LELSCLGGRVAAR", "growth estimate": "< -0.25"},
      {"substance": "LEMGMVRAQTCIRGVP", "growth estimate": "< -0.25"},
      {"substance": "LEML", "growth estimate": "< -0.25"},
      {"substance": "LENG", "growth estimate": -0.111},
      {"substance": "LENGVRKRRWARRDDGLREP", "growth estimate": "< -0.25"},
      {"substance": "LENRTYDRAARPHVRFKG", "growth estimate": "< -0.25"},
      {"substance": "LEPLAPY", "growth estimate": "< -0.25"},
      {"substance": "LEPPRG", "growth estimate": "< -0.25"},
      {"substance": "LEPYVWACYKIRSAEHVDCL", "growth estimate": "< -0.25"},
      {"substance": "LERLWPGVSKDNPVWQWSIL", "growth estimate": "< -0.25"},
      {"substance": "LERQDLGYDLQ", "growth estimate": "< -0.25"},
      {"substance": "LERVT", "growth estimate": "< -0.25"},
      {"substance": "LERVVVLRLSTREGPGPGGN", "growth estimate": "< -0.25"},
      {"substance": "LESGDRVGRRNL", "growth estimate": "< -0.25"},
      {"substance": "LESWFKWRKPQRSPRKLEVF", "growth estimate": "< -0.25"},
      {"substance": "LETCARCSGDVFGLDRDRYH", "growth estimate": "< -0.25"},
      {"substance": "LETEPPTCGRSFNRLIIFLA", "growth estimate": "< -0.25"},
      {"substance": "LETFFIVAPVSHPTLR", "growth estimate": "< -0.25"},
      {"substance": "LEVQRALRAIIQKRLLGSRV", "growth estimate": "< -0.25"},
      {"substance": "LEVTGVAQPRLHCGWATVSP", "growth estimate": "< -0.25"},
      {"substance": "LEWLHRDLGAACPGSSGIAV", "growth estimate": "< -0.25"},
      {"substance": "LFAGPTAGGVAAKLTCGDK", "growth estimate": "< -0.25"},
      {"substance": "LFAPYCYTTAALPTWKVICL", "growth estimate": "< -0.25"},
      {"substance": "LFASGLRGSRPLRPPPTLSN", "growth estimate": "< -0.25"},
      {"substance": "LFCAVAQ", "growth estimate": "< -0.25"},
      {"substance": "LFEQTSSHLIHSTSKCGE", "growth estimate": "< -0.25"},
      {"substance": "LFETSGLGAESRGVDDAGAY", "growth estimate": "< -0.25"},
      {"substance": "LFFRGLRIGSGPEPRASSP", "growth estimate": -0.231},
      {"substance": "LFHRSPCCPTALCAVEYDW", "growth estimate": "< -0.25"},
      {"substance": "LFLKERED", "growth estimate": "< -0.25"},
      {"substance": "LFLRCDNLVVSFKTPPTLGM", "growth estimate": "< -0.25"},
      {"substance": "LFLTPARPTVSD", "growth estimate": "< -0.25"},
      {"substance": "LFPNARL", "growth estimate": "< -0.25"},
      {"substance": "LFQSTFPRCSSGPPGPVGFK", "growth estimate": "< -0.25"},
      {"substance": "LFQWDYDRSLDGHV", "growth estimate": "< -0.25"},
      {"substance": "LFRAGEAYYFDLRH", "growth estimate": "< -0.25"},
      {"substance": "LFRETRPLFRVIAGGLHVTD", "growth estimate": "< -0.25"},
      {"substance": "LFRFLLIGFSLASWEPSGRS", "growth estimate": "< -0.25"},
      {"substance": "LFRRLSRVSSKYEIRTQVKA", "growth estimate": "< -0.25"},
      {"substance": "LFRYSSYGTGVWRIIRPFFS", "growth estimate": "< -0.25"},
      {"substance": "LFSGES", "growth estimate": "< -0.25"},
      {"substance": "LFSQRQTIPVPPHICRSGDV", "growth estimate": "< -0.25"},
      {"substance": "LFTFQAASMF", "growth estimate": "< -0.25"},
      {"substance": "LFVAQSGMSRLRWSLVGPKR", "growth estimate": "< -0.25"},
      {"substance": "LFVGRVCPDRAVRGVSPIPR", "growth estimate": "< -0.25"},
      {"substance": "LFVKSLQSDPVECGCVRV", "growth estimate": "< -0.25"},
      {"substance": "LFYLYPHETGDPSVLSAHLW", "growth estimate": "< -0.25"},
      {"substance": "LFYRVRCSGVQLGTEDSHCA", "growth estimate": "< -0.25"},
      {"substance": "LGAGQSEEVLGRERTEIGRC", "growth estimate": "< -0.25"},
      {"substance": "LGAGSKPTGSKWAFR", "growth estimate": "< -0.25"},
      {"substance": "LGAILRECNQF", "growth estimate": "< -0.25"},
      {"substance": "LGAR", "growth estimate": "< -0.25"},
      {"substance": "LGARFKSVLSVQVTTRTYNP", "growth estimate": "< -0.25"},
      {"substance": "LGASA", "growth estimate": "< -0.25"},
      {"substance": "LGASQLDI", "growth estimate": "< -0.25"},
      {"substance": "LGAVDSGDRTTRYKIGVIRR", "growth estimate": -0.174},
      {"substance": "LGCFAGFIIGAKVLRGEEHI", "growth estimate": "< -0.25"},
      {"substance": "LGDYHNCFLSEFLHGPLGVG", "growth estimate": "< -0.25"},
      {"substance": "LGE", "growth estimate": "< -0.25"},
      {"substance": "LGEFIRRELTSVALVPLRGY", "growth estimate": -0.243},
      {"substance": "LGEGSAPEGYQDSGLLRLHI", "growth estimate": 0.0596},
      {"substance": "LGEGSRVAYPEEARPTRGGD", "growth estimate": -0.009},
      {"substance": "LGELTVYCVMGYGRRRYSQA", "growth estimate": "< -0.25"},
      {"substance": "LGEQDKVPASWI", "growth estimate": "< -0.25"},
      {"substance": "LGFAFAHVKRESRVYSGLES", "growth estimate": "< -0.25"},
      {"substance": "LGFVY", "growth estimate": "< -0.25"},
      {"substance": "LGGASLIERRIDKPLGMSSV", "growth estimate": "< -0.25"},
      {"substance": "LGGCIYMPGSFKTRMGERR", "growth estimate": 0.066},
      {"substance": "LGGGKWRGNRHLSVSSKLPL", "growth estimate": -0.239},
      {"substance": "LGGIFVFLVSPSNRARLLSR", "growth estimate": "< -0.25"},
      {"substance": "LGGRPVHLVPKKGKRSVAVV", "growth estimate": "< -0.25"},
      {"substance": "LGGSDMTYSRRFTINTRLGT", "growth estimate": "< -0.25"},
      {"substance": "LGGT", "growth estimate": "< -0.25"},
      {"substance": "LGGVFGMDFLLGLLI", "growth estimate": "< -0.25"},
      {"substance": "LGGYI", "growth estimate": "< -0.25"},
      {"substance": "LGGYILLRSLASSMCYN", "growth estimate": "< -0.25"},
      {"substance": "LGHVL", "growth estimate": "< -0.25"},
      {"substance": "LGIDQMFRQS", "growth estimate": "< -0.25"},
      {"substance": "LGIHNGSWYAGRSSLKTVA", "growth estimate": "< -0.25"},
      {"substance": "LGISILGRIAAMFEVPS", "growth estimate": "< -0.25"},
      {"substance": "LGISSRSPREISIVKKRLGG", "growth estimate": "< -0.25"},
      {"substance": "LGKSPWFI", "growth estimate": "< -0.25"},
      {"substance": "LGKSQYAYKVWPDAHGT", "growth estimate": "< -0.25"},
      {"substance": "LGLARCMQS", "growth estimate": "< -0.25"},
      {"substance": "LGLCCEGGEQRPEPCGPLNA", "growth estimate": "< -0.25"},
      {"substance": "LGLEMTRLRLRYLKSPCPLH", "growth estimate": "< -0.25"},
      {"substance": "LGLHQKVRSPVTVNLGKYDV", "growth estimate": -0.208},
      {"substance": "LGLIKSAFR", "growth estimate": "< -0.25"},
      {"substance": "LGLIRLAFLQ", "growth estimate": "< -0.25"},
      {"substance": "LGLKENTVSTLVSQD", "growth estimate": "< -0.25"},
      {"substance": "LGLKGL", "growth estimate": "< -0.25"},
      {"substance": "LGLLSHTWTTINQGHVNKWA", "growth estimate": "< -0.25"},
      {"substance": "LGLLTATQCPDKQPLFNWRR", "growth estimate": "< -0.25"},
      {"substance": "LGLPGTQTSTVDASDRPIGS", "growth estimate": "< -0.25"},
      {"substance": "LGMDGVFLSSTVGLSADSGG", "growth estimate": "< -0.25"},
      {"substance": "LGMSCFMGATQR", "growth estimate": "< -0.25"},
      {"substance": "LGNELAITLTEHCH", "growth estimate": "< -0.25"},
      {"substance": "LGNHRGTGVIGRQGCRHAHV", "growth estimate": "< -0.25"}
    ]}
  ]
}
